No constants are given. Whether binding was seen depends on the method and setting. Binding seen in cells or lysates may run through a third protein. Some results given as binding are weak or reduced against the parent protein; the word gives no strength.
Columns and labels:
[1] = molecular target: WBP1L, endogenous in bone marrow‐derived macrophages (mouse (endogenous in BMDM)) (UniProt Q8BGW2); experiment: co-IP; endogenous proteins; WBP1L immunoprecipitates from WT or Wbp1l−/− BMDM immunoblotted with antibody to WWP1 and WBP1L
[2] = molecular target: wild‐type WBP1L expressed in J774 macrophage‐like cell line (UniProt Q8BGW2); experiment: co-IP; J774 macrophage‐like cell line expressing wild‐type WBP1L or WBP1LΔN; endogenous ITCH co‐isolated (Figure S5)
[3] = molecular target: WBP1L‐Myc (wild‐type WBP1L construct) (UniProt Q8BGW2); experiment: co-IP; HEK293 cells transfected with WBP1L‐Myc or WBP1LΔN‐Myc together with ITCH or WWP2; WBP1L immunoprecipitation, immunoblot with antibody to ITCH or WWP2

Protein sequences, listed by entry. Tags and fused reporters are not part of them.
UniProt Q8BGW2: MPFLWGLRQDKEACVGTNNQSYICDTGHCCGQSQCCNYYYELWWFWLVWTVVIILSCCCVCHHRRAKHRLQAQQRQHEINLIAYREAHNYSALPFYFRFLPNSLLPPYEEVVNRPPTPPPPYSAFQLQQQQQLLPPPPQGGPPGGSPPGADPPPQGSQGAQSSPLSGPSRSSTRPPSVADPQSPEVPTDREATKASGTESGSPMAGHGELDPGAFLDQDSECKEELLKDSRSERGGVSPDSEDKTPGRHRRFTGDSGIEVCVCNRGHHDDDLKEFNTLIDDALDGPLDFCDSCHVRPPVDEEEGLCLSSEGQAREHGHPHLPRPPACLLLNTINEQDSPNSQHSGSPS
UniProt Q8C863: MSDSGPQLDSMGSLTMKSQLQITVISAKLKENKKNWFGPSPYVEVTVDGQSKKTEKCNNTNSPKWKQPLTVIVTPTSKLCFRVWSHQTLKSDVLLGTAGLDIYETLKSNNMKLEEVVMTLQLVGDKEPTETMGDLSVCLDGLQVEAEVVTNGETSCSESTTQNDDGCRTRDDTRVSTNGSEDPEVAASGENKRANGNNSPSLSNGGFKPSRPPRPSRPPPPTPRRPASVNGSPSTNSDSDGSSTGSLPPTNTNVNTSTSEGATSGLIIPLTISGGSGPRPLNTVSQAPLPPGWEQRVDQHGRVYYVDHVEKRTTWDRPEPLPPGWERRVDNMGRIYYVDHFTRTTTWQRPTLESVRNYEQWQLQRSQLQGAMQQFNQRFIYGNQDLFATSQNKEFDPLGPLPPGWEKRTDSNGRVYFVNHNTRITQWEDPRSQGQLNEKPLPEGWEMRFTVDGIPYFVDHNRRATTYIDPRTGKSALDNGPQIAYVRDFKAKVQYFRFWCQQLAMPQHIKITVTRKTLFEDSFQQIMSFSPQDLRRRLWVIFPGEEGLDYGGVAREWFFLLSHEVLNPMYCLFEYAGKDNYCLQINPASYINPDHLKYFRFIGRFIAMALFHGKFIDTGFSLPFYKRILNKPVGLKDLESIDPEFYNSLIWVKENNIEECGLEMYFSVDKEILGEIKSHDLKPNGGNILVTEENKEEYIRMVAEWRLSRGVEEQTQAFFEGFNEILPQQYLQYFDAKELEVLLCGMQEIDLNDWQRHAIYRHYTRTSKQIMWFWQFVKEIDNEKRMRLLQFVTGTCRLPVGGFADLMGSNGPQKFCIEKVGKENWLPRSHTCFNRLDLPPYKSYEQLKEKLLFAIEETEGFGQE
UniProt Q9DBH0: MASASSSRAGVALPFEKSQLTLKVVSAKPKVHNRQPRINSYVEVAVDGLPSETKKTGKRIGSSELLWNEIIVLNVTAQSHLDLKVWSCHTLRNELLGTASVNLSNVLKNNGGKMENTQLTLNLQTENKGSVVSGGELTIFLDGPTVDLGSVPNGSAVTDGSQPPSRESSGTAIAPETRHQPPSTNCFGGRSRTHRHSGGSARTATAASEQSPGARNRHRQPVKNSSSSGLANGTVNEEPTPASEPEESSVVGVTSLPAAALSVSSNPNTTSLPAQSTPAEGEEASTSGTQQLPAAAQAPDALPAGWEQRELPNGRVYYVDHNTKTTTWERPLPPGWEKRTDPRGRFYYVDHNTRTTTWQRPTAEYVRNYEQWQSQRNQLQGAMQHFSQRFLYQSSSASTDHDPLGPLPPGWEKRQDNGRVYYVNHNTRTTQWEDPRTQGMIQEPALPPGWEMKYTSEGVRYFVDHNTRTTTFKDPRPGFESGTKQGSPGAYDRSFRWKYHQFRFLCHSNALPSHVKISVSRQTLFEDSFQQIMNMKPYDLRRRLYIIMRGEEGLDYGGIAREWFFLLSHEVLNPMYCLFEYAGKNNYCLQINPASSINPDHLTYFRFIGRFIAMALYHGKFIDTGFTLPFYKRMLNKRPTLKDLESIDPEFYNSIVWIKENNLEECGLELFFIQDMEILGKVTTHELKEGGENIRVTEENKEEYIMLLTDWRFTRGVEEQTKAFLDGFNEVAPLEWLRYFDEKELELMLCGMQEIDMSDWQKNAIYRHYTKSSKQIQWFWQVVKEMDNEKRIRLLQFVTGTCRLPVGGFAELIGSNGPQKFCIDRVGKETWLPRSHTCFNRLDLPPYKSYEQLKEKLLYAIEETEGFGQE

Substance: WWP1, endogenous (from UniProt Q8BZZ3 1-918) (enzyme)
- binding [1]: binds

Substance: ITCH, endogenous (from UniProt Q8C863 1-864) (enzyme)
- binding [2]: binds

Substance: WWP2, co‐expressed in HEK293 cells (from UniProt Q9DBH0 1-870) (enzyme)
- binding [3]: binds

Substance: ITCH, co‐expressed in HEK293 cells (from UniProt Q8C863 1-864) (enzyme)
- binding [3]: binds

— article PMC6991692
